The record followed here is US20260265340A1 (CUROGEN TECHNOLOGY, published 2026).

The chains behind the UniProt entries cited, without tags or fusion partners. Residues count along the entry.
UniProt Q16552, residues 20-155: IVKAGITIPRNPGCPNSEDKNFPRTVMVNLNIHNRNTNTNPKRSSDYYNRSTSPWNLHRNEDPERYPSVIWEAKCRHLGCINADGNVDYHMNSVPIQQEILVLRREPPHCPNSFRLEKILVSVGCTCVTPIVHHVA

Test [1] has as its target human IL-17A homodimer (IL-17AA) (human) (UniProt Q16552). Kind of test: size-exclusion chromatography of T1-T4-14 co-expressed with IL-17A in ExpiCHO cells and then incubated with E. coli TNFα at 4 °C.
Test [2] shares this target. Put plainly: SDS-PAGE (reducing and non-reducing) of the SEC fractions of FIG. 5a; co-elution.

No constants are given. Whether binding was seen depends on the method and setting. Some binding calls cover weakened binding; strength is not graded here. Tags and fused reporters may be left off the sequences shown.

B1: IL-17RA/RC-Fc-TNFR2 fusion protein T1-T4-14 (Fc fusion)
chain: LRLLDHRAPVCSQPGLNCTVKNSDCLDDSWIHPRNLTPSSPKDLQIQLHFAHTQQGDLVPVAHIEWTLQTDASILYLEGAELSVLQLDTNERLCVRFEFLSKLRHHHRRWRFTFSHFVVDPGQEYEVTVHHLPKPIPDGDPNHQSKNFLVPDCEHPRMKVTTPCMSSALPWLNVSADGDNVHLVLNVSEEQHFGLSLYWNQVQGPPKPRWHKNLTGPQIITLNHTDLVPCLCIQVWPLEPDSVRTNICPFREDPRAHQNLWQAARLRLLTLQSWLLDAPCSLPAEAALCWRAPGGDPCQPLVPPLSWENVTVDKVLEFPLLKGHPNLCVQVNSSEKLQLQECLWADSLGPLKDDVLLLETRGPQDNRSLCALEPSGCTSLPSKASTRAARLGEYLLQDLQSGQCLQLWDDDLGALWACPMDKYIHKTGIEGRMDRNTGRGGEEKKKEKEKEEQEERETKTPECPSHTQPLGVFLFPPKPKDTLMISRTPEVTCVVVDVSQEDPEVQFNWYVDGVEVHNAKTKPREEQFNSTYRVVSVLTVLHQDWLNGKEYKCKVSNKGLPSSIEKTISKAKGQPREPQVYTLPPSQEEMTKNQVSLTCLVKGFYPSDIAVEWESNGQPENNYKTTPPVLDSDGSFFLYSRLTVDKSRWQEGNVFSCSVMHEALHNHYTQKSLSLSLGKGGGGSGGGGSGGGGSLELPAQVAFTPYAPEPGSTCRLREYYDQTAQMCCAKCPPGQHAKVFCTKTSDTVCDSCEDSTYTQLWNWVPECLSCSSRCSSDQVETQACTREQNRICTCRPGWYCALSKQEGCRLCAPLSKCRPGFGVARPGTETSDVVCKPCAPGTFSNTTSSTDICRPHQICSVVAIPGNASMDAVCTSTSPTRSMAPGAVHLPQPVSTRSQHTQPTPGPSTAPSTSILLPMGPSPPAEGSTGD
notes: Structure T1c-Fc-T4g; also called T1c-Fc-T4g; IL-17RA/RC-Fc-TNFR2 (T1-T4-14)
In the case of B1, the binding result in test [1] and in test [2] was “binds” each time.
